Paper PMC5627969
These are yes or no findings as the source states them, for the method shown. Binding seen in cells or lysates may run through a third protein. Binding can be weak; no strength is given.

By UniProt entry, the sequences of proteins in these tests, tags left out. Where a name states a change or a piece, a line headed by the entry shows the natural chain unless it says otherwise.
UniProt Q9UKC9: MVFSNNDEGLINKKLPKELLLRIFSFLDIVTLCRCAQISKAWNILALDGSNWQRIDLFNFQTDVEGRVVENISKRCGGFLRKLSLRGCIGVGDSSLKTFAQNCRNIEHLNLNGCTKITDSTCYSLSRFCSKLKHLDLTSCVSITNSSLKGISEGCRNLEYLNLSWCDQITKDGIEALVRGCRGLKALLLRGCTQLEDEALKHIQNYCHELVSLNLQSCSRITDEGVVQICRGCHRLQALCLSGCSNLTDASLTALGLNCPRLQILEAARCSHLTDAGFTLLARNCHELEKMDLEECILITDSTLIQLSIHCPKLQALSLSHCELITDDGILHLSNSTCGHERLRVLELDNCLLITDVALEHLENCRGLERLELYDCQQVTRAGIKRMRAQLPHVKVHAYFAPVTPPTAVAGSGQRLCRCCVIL
UniProt Q14573: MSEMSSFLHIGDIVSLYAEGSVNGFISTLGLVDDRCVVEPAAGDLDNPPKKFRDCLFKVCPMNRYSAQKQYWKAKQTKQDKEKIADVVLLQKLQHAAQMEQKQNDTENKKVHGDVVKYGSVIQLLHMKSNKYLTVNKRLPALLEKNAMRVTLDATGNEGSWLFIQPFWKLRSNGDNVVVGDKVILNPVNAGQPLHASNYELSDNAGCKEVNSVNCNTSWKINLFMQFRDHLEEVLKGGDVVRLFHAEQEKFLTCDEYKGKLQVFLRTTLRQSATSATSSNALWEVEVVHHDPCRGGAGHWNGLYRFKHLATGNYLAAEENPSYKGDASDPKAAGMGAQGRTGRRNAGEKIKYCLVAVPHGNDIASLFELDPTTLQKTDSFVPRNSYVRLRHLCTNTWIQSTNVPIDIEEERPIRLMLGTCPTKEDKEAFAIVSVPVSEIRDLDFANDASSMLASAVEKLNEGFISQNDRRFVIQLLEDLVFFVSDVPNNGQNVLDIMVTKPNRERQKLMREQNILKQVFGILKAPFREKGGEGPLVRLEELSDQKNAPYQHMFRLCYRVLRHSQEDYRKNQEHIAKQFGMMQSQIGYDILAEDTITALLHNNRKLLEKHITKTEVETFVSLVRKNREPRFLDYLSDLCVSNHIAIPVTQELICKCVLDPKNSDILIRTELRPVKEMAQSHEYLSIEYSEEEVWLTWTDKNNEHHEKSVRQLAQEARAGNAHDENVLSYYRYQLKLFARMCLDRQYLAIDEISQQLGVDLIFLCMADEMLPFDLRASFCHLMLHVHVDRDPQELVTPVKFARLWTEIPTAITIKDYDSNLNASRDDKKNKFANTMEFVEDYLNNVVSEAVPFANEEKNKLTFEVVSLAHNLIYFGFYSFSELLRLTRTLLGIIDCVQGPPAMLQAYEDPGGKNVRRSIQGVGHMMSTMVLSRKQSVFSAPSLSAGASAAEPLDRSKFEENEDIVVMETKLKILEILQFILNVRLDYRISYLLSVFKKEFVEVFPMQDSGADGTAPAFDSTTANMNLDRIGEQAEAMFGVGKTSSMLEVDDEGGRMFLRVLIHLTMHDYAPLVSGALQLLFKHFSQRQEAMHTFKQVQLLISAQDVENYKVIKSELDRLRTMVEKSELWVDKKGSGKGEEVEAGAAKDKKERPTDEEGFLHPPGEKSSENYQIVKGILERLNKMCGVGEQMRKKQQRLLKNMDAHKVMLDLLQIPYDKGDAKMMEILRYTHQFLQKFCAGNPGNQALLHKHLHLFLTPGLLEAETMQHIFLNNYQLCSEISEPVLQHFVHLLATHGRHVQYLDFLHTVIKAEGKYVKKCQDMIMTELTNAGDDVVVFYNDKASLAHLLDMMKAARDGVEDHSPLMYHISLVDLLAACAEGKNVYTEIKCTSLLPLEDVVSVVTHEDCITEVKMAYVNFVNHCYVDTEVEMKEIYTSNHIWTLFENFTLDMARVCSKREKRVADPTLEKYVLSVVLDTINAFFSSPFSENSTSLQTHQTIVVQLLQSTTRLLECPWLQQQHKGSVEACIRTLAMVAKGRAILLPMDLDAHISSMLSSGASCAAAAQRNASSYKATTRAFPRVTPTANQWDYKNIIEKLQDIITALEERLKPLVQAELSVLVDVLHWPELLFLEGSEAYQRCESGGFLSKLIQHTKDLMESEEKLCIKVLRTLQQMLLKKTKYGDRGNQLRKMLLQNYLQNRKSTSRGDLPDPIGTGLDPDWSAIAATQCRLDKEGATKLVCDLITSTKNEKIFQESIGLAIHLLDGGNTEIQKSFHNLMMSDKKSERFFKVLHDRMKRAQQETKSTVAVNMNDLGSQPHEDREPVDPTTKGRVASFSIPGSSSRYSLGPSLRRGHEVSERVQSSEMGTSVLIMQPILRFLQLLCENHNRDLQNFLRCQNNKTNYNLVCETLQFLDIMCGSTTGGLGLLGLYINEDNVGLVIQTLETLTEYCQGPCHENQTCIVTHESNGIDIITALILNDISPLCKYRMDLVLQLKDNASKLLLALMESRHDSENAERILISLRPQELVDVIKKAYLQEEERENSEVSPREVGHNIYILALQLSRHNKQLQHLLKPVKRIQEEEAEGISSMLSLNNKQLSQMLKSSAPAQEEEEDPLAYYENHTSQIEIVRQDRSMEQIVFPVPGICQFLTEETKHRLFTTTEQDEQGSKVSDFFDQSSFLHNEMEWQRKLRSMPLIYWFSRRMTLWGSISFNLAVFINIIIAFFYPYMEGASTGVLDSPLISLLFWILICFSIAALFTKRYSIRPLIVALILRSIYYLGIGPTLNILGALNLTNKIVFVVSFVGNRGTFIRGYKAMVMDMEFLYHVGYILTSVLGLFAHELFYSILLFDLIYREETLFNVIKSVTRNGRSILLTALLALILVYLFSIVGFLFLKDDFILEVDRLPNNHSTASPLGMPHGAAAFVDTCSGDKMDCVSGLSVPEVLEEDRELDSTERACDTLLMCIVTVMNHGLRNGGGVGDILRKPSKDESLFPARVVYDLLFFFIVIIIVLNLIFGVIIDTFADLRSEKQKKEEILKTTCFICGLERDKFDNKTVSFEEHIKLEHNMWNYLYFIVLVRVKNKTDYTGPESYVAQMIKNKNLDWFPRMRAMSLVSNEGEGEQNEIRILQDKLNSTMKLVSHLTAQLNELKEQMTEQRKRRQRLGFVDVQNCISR

Biological target: Flag-tagged FBXL2(ΔF-box) (human) (UniProt Q9UKC9)
Assay: co-IP; HEK293T transfected with a Flag-tagged protein; anti-Flag immunoprecipitation; endogenous partners by immunoblot; with or without MG132 for 3 h; PTEN siRNA in one panel

binding: binds
Substance: IP3R3 (endogenous, HEK293T) (from UniProt Q14573 1-2671) (receptor)
